Reference: PMC3346761, “Insight into the Assembly Properties and Functional Organisation of the Magnetotactic Bacterial Actin-like Homolog, MamK” (PLoS ONE, 2012)
No constants are given. Whether binding was seen depends on the method and setting. Some entries that bind do so weakly or less than the wild type. Sequences can lack the tags named with a protein.

Experiments:
[1] = biological target: MamK from Magnetospirillum gryphiswaldense MSR-1, C-terminal poly-histidine-tagged (Magnetospirillum gryphiswaldense MSR-1) (UniProt Q6NE59); assay: dynamic light scattering (size distribution); hydrodynamic diameters with Mg2+ and ATP; 1, 2, 4 and 6 µM at 30°C; 30, 45 and 65°C; both purified
[2] = biological target: MamK from Magnetospirillum gryphiswaldense MSR-1, C-terminal poly-histidine-tagged (Magnetospirillum gryphiswaldense MSR-1) (UniProt Q6NE59); assay: native gel or EMSA; 7.5% native polyacrylamide gel after incubation at room temperature with divalent cations, without ATP; data not shown; both purified
[3] = biological target: MamK from Magnetospirillum gryphiswaldense MSR-1, C-terminal poly-histidine-tagged (Magnetospirillum gryphiswaldense MSR-1) (UniProt Q6NE59); assay: negative-stain transmission electron microscopy; purified MamK (1 mg/ml) in polymerisation buffer with 0.2 mM ATγP, 30°C, 15 or 30 min, 2% uranyl acetate; both purified
[4] = biological target: MamK from Magnetospirillum gryphiswaldense MSR-1, C-terminal poly-histidine-tagged (Magnetospirillum gryphiswaldense MSR-1) (UniProt Q6NE59); assay: co-sedimentation; MamK dialysed against polymerisation buffer with Mg2+, no ATP, ultracentrifugation at 90,000 g, 4°C; both purified
[5] = biological target: MamK from Magnetospirillum gryphiswaldense MSR-1, C-terminal poly-histidine-tagged (Magnetospirillum gryphiswaldense MSR-1) (UniProt Q6NE59); assay: light scattering (90° optics, time course); polymerisation started with 0.2 mM ATP in polymerisation buffer (10 mM imidazole, 1 mM MgCl2, 0.1 mM EGTA, 20 mM KCl) pH 7.0, 30°C, 2-20 µM MamK, 400 nm, 1000 s; high salt (100 mM NaCl or KCl) lowered the signal at least 150-fold; both purified

Measured: binding

B1: MamK from Magnetospirillum gryphiswaldense MSR-1, C-terminal poly-histidine-tagged (natural protein, UniProt Q6NE59 1-360, looked up)
chain: MWIDLLARERSDKMSEGEGQAKNRLFLGIDLGTSHTAVMTSRGKKFLLKSVVGYPKDVIGLKLLGRPYVVGDEAFEMRSYLDLRYPLQDGVLSEISDRDIEVARHLLTHVVKSAEPGANDEICAVIGVPARASGANKALLLKMAQEVVHTALVVSEPFMVGYGLDKLNNTIIVDIGAGTTDICALKGTVPGPEDQVTLTKAGNYLDERLQNAILERHPELQMNTNVACAVKEQFSFVGARGEAATFEFRAAGKPVRCDVTESVKIACEALMPDIIESIEILLRSFQPEYQATVLQNIVFAGGGSRIRGLAAYVKDKLRPFGNADVTCVKDPTFDGCRGALRLAEELPPQYWCQLGDVSGQ
notes: MamK, actin-like protein of M. gryphiswaldense MSR-1; mamK gene (1083 bp) cut from a MamK-pGEM construct with SalI/EcoRI and sub-cloned into pET29b; purified as a 42 KDa protein; No cleavage of the tag is described; also called His-MamK; His-tagged MamK
binds: all assays above
